{"source": "PubChem BioAssay AID504467", "about": "(National Center for Advancing Translational Sciences (NCATS), 2011)", "note": "Out of some 330,000 compounds screened, about 7,700 (2.3%) were called active. The inconclusive results got no clear call from the source; some entries with a clear call stand among them for comparison. The call rests on the fitted dose curve; in most records, active means well fitted inhibition curve with a large enough effect; inconclusive means small, poorly fitted or top-dose-only effect, or effect the other way; inactive means flat fitted curve, though single readings scatter. Where the call is inconclusive, the potency comes from a doubtful curve fit. Potency means the concentration at half of the fitted maximal effect.", "data": [{"experiment": "qHTS screen for small molecules that inhibit ELG1-dependent DNA repair in human embryonic kidney (HEK293T) cells expressing luciferase-tagged ELG1; further: nearly all actives have a fitted effect of over 55% in size", "details": "HEK293T ELG1-luciferase reporter, luminescence, 16 h, DNA damage induced by 5-fluorouridine; series mostly up to 46.1 µM", "procedure,_shortened": "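Overnight (16 hr) co-exposure of 2,000 cells/well to 5-fluorouridine and compound at 37 °C preceded detection. Luciferase was quantified via ONE-Glo luminescence; loss of signal denotes inhibition.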", "values": [{"smiles": "CCOC(=O)Cc1csc(NC(=O)CS(=O)(=O)Cc2ccccc2)n1", "Potency": "inactive"}, {"smiles": "COc1ccc(NC(=O)c2cccc3c2C(=O)N(CC2CCCO2)C3)cc1OC", "note": "(configuration not stated)", "Potency": "inconclusive: 32.6 µM [inhibitor, partial curve, poor fit]"}, {"smiles": "Cc1[nH]n(-c2ccccc2)c(=O)c1/C=N/NC(=O)C(C)C", "Potency": "inactive"}, {"smiles": "CCCCOc1ccc(CNn2c(C)nc3ccccc3c2=O)cc1", "Potency": "inconclusive: 32.6 µM [inhibitor, single point]"}, {"smiles": "CCOc1ccc(-c2c(C(=O)N/N=C/c3cccnc3)nnn2-c2nonc2N)cc1", "Potency": "inconclusive: 16.4 µM [activator, single point]"}, {"smiles": "Cc1nn2c3c(cnc2c1-c1ccccc1)C(=O)CCC3", "Potency": "inconclusive: 9.2 µM [activator, partial curve]"}, {"smiles": "COc1ccc(N2CSC3=C(C#N)C(c4cc(OC)c(OC)cc4OC)CC(=O)N3C2)c(OC)c1", "note": "(configuration not stated)", "Potency": "inactive"}, {"smiles": "CCN(CC)CCOC(=O)c1c(C)oc2ccc(OC)cc12", "Potency": "inconclusive: 18.4 µM [activator, partial curve, poor fit]"}, {"smiles": "Cc1cc(=O)n2nc(N3CCCC3C(=O)Nc3cccc(F)c3)sc2n1", "note": "(configuration not stated)", "Potency": "inactive"}, {"smiles": "CN(C)CCCN(C(=O)c1cc2cc([N+](=O)[O-])ccc2s1)c1nc2cc3c(cc2s1)OCCO3", "Potency": "inconclusive: 29.1 µM [inhibitor, single point]"}, {"smiles": "N#CC1=C2SCN(c3ccccc3)CN2C(=O)CC1c1c(Cl)cccc1Cl", "note": "(configuration not stated)", "Potency": "inconclusive: 10.3 µM [activator, partial curve, poor fit]"}, {"smiles": "CC(C)c1ccc(NC(=O)C(=O)C2C(=O)Nc3ccccc32)cc1", "note": "(configuration not stated)", "Potency": "inconclusive: 18.3 µM [activator, partial curve, poor fit]"}, {"smiles": "CCCN1CCC(=O)N([C@H](COc2ccccc2)c2ccccc2)CC1", "Potency": "inconclusive: 1.64 µM [activator, partial curve, poor fit]"}, {"smiles": "Cc1ccc(-c2nc(N=Nc3ccc(O)cc3)n[nH]2)cc1", "Potency": "inconclusive: 16.4 µM [activator, single point]"}, {"smiles": "O=C(CSc1nccc(-c2cccs2)n1)Nc1cccc(Cl)c1", "Potency": "inconclusive: 29.1 µM [inhibitor, single point]"}, {"smiles": "O=C(COc1ccc(Cl)cc1)OCC(=O)c1ccc[nH]1", "Potency": "inconclusive: 16.4 µM [activator, partial curve, poor fit]"}, {"smiles": "Cc1ccc(C(=O)N2CCNC(=O)C2CC(=O)Nc2ccccc2)cc1", "note": "(configuration not stated)", "Potency": "inactive"}, {"smiles": "CC1C(=O)C(C)C(c2cccs2)NC1c1cccs1", "note": "(configuration not stated)", "Potency": "inactive"}, {"smiles": "COC(=O)c1ccc(NC(=O)c2ccc(CN3CCOCC3)cc2)cc1", "Potency": "active: 8.2 µM"}, {"smiles": "CCC(=O)c1ccc(N2CCN(C(=O)c3ccccc3Br)CC2)c(F)c1", "Potency": "inconclusive: 23.1 µM [inhibitor, partial curve, poor fit]"}, {"smiles": "CCN(CC)CCCCNc1ncc2cc(-c3cc(OC)cc(OC)c3)c(NC(=O)NC(C)(C)C)nc2n1", "Potency": "inactive"}, {"smiles": "CSCCC(NC(=O)COc1ccccc1)C(=O)NC1CCC(C)CC1", "note": "(configuration not stated)", "Potency": "inactive"}, {"smiles": "CCc1ccc2c(CN(C)Cc3ccccc3OC)cc(=O)oc2c1", "Potency": "inconclusive: 29.1 µM [activator, single point]"}, {"smiles": "Cc1ccc(Cn2nc(C)cc2C(=O)Nc2ccc(Cl)cc2)cc1", "Potency": "inconclusive: 16.4 µM [activator, partial curve, poor fit]"}, {"smiles": "CN(C)C(CNC(=O)c1cc2ccccc2o1)c1ccco1", "note": "(configuration not stated)", "Potency": "inconclusive: 23.1 µM [activator, partial curve]"}, {"smiles": "Cc1cccnc1NC(=O)CNC(=O)c1cccs1", "Potency": "inactive"}, {"smiles": "Cc1noc(C)c1C(=O)N1CCCC(C(=O)c2ccc(Cl)cc2)C1", "note": "(configuration not stated)", "Potency": "inactive"}, {"smiles": "O=C(C1CCN(S(=O)(=O)c2cccc3cccnc23)CC1)N1CCCCC1", "Potency": "inconclusive: 1.03 µM [inhibitor, single point]"}, {"smiles": "Cc1ccc(-n2c(C)nc3c(cnn3-c3ccc(F)cc3)c2=O)cc1C", "Potency": "inconclusive: 11.6 µM [inhibitor, partial curve]"}, {"smiles": "CCCCOc1ccc(C2(C)CC(=O)NC2=O)cc1", "note": "(configuration not stated)", "Potency": "inconclusive: 11.6 µM [activator, partial curve]"}, {"smiles": "O=C(Nc1cccc(S(=O)(=O)N2CCCCC2)c1)c1ccc2ncsc2c1", "Potency": "inconclusive: 4.61 µM [activator, full curve, poor fit]"}, {"smiles": "CCOc1ccc(C(=O)NNC(=O)CN2C(=O)C3CC=CCC3C2=O)cc1OC", "note": "(configuration not stated)", "Potency": "inactive"}, {"smiles": "CCCn1nc(C(=O)N(C)CC(=O)Nc2ccc(OCC)c(OCC)c2)c2ccccc2c1=O", "Potency": "inactive"}, {"smiles": "Cc1cccc2c(C(=O)N3CCCCC3)cc(-c3ccccc3)nc12", "Potency": "inconclusive: 29.1 µM [inhibitor, single point]"}, {"smiles": "CC(=O)Nc1ccc(NC(=O)CN(c2ccc(F)cc2)S(=O)(=O)c2ccc3c(c2)OCCO3)cc1", "Potency": "inactive"}, {"smiles": "O=C(c1ccccc1)c1ccc(-n2ccnc2)c([N+](=O)[O-])c1", "Potency": "inactive"}, {"smiles": "COc1ccccc1OCC(=O)N1CCN(C(=O)c2ccco2)CC1", "Potency": "inconclusive: 25.9 µM [activator, single point]"}, {"smiles": "Cc1nc(Cl)c(N=Cc2cccc([N+](=O)[O-])c2)c(Cl)n1", "Potency": "inconclusive: 14.6 µM [activator, partial curve, poor fit]"}, {"smiles": "O=C(Oc1ccccc1Cl)C1CCN(C(=O)c2ccc(F)cc2)CC1", "Potency": "inactive"}, {"smiles": "O=C(NC1=NCCS1)c1cc(-c2cccc(Br)c2)nc2ccccc12", "Potency": "inconclusive: 29.1 µM [inhibitor, single point]"}, {"smiles": "Cc1ccc(N=Cc2sc(O)c3ccccc23)c(C)c1", "Potency": "inconclusive: 18.4 µM [activator, partial curve]"}, {"smiles": "COc1ccccc1CNC(=O)Cc1csc(NC(=O)Nc2ccccc2OC)n1", "Potency": "inconclusive: 5.8 µM [inhibitor, single point]"}, {"smiles": "Cc1cc(C)nc(NS(=O)(=O)c2ccc(NC(=O)c3ccc(O)cc3O)cc2)n1", "Potency": "inactive"}, {"smiles": "CC(C)N(CCCNC(=O)Cn1c(=O)c2cccn2c2ccc(F)cc21)Cc1ccccc1", "Potency": "inconclusive: 16.4 µM [activator, single point]"}, {"smiles": "CCCCn1c(-c2ccc(Br)cc2F)nc2c1c(=O)[nH]c(=O)n2CC(C)C", "Potency": "inconclusive: 20.6 µM [inhibitor, single point]"}, {"smiles": "COc1ccc(C(C)=O)cc1COC(=O)c1cnc(Cl)c(Cl)c1", "Potency": "inactive"}, {"smiles": "CCOc1ccc2ccccc2c1/C=N/NC(=O)c1ccncc1", "Potency": "inactive"}, {"smiles": "COc1ccc(CCNC(=O)c2cc(-c3ccccn3)nc3ccccc23)cc1", "Potency": "inconclusive: 23.1 µM [inhibitor, single point]"}, {"smiles": "CC(C)CNc1nnnc2c1sc1nc(N3CCOCC3)c3c(c12)CCCC3", "Potency": "inconclusive: 4.11 µM [inhibitor, full curve]"}, {"smiles": "COc1ccc2[nH]c(=O)c(CN(Cc3ccco3)C(=O)c3ccccc3)cc2c1", "Potency": "inactive"}, {"smiles": "CCOc1ccc(NS(=O)(=O)c2cc(C(=O)NCCN3CCOCC3)ccc2C)cc1", "Potency": "inactive"}, {"smiles": "c1ccc(CCNc2ncnc3ccccc23)cc1", "Potency": "inconclusive: 0.326 µM [inhibitor, partial curve, poor fit]"}, {"smiles": "CCCCn1c(SCC(=O)Nc2cc(NC(=O)c3ccco3)ccc2C)nc2ccccc2c1=O", "Potency": "active: 16.4 µM"}, {"smiles": "COc1cccc(-n2c(SCC(N)=O)nnc2-c2c[nH]c3ccccc23)c1", "Potency": "inconclusive: 20.6 µM [activator, partial curve, poor fit]"}, {"smiles": "O=C(CN1CCN(c2ccc(F)cc2)CC1)Nc1ccc2c(c1)OCCO2", "Potency": "inconclusive: 20.6 µM [activator, single point]"}, {"smiles": "CCOC(=O)c1[nH]c(C)c(/C=N/O)c1C", "Potency": "inconclusive: 13 µM [inhibitor, partial curve]"}, {"smiles": "CCOc1ccc(NC(=O)CN(C)Cc2cc(=O)n3c(-c4ccccc4)csc3n2)cc1OCC", "Potency": "inconclusive: 18.3 µM [inhibitor, partial curve]"}, {"smiles": "Cn1nnnc1Sc1ncnc2scc(-c3cccc(F)c3)c12", "Potency": "inconclusive: 23.1 µM [inhibitor, single point]"}, {"smiles": "CC1CCCC(NC(=O)COC(=O)COc2ccccc2Cl)C1C", "note": "(configuration not stated)", "Potency": "inconclusive: 18.3 µM [activator, partial curve, poor fit]"}, {"smiles": "CCCCCCCNC(=O)c1ccc(N2CCC3(CC2)OCCO3)c([N+](=O)[O-])c1", "Potency": "active: 18.4 µM"}, {"smiles": "COc1ccccc1NC(=O)CCCc1nnc2n(C)c(=O)c3sccc3n12", "Potency": "inactive"}, {"smiles": "O=C(Nc1ccc2snnc2c1)N1CCSCC1", "Potency": "inactive"}, {"smiles": "COc1ccc(C2=NN(C(=O)c3ccccc3)C(c3ccccc3)C2)c(O)c1", "note": "(configuration not stated)", "Potency": "inconclusive: 20.6 µM [inhibitor, partial curve]"}, {"smiles": "Oc1ccc(-c2csc(NCc3ccco3)n2)cc1", "Potency": "inconclusive: 18.4 µM [activator, partial curve]"}, {"smiles": "O=C(NC[C@@H]1CCCO1)c1cccc2c1C(=O)c1ccc(Cl)cc1S2(=O)=O", "Potency": "inconclusive: 29.1 µM [activator, single point]"}, {"smiles": "Cc1nn(CCc2n[nH]c(=S)n2C2CCCCC2)c(C)c1Br", "Potency": "inactive"}, {"smiles": "CC(NC(=O)C1CCN(C(=O)[C@@H]2Cc3ccccc3CN2)CC1)c1ccccc1", "note": "(some centres not stated)", "Potency": "inactive"}, {"smiles": "COc1ccc(CCC(=O)N2CCc3ccccc32)cc1", "Potency": "inconclusive: 16.4 µM [activator, partial curve]"}, {"smiles": "Cc1ccc2c(c1)cc1c(=O)n(CC(=O)NCCCc3ccccc3)nc(C)n12", "Potency": "inactive"}, {"smiles": "N#Cc1c(Cl)nsc1NC(=O)c1ccccc1", "Potency": "active: 2.91 µM"}, {"smiles": "CC(=O)Nc1ccc(S(=O)(=O)NCCC(=O)NCc2ccncc2)cc1", "Potency": "inactive"}, {"smiles": "CC1CN(C(=O)c2ccc(-c3cccc(C(F)(F)F)c3)o2)CC(C)O1", "note": "(configuration not stated)", "Potency": "inactive"}]}]}
